Reference: patent US20110230418A1
These are yes or no findings as the source states them, for the method shown. Some binding calls cover weakened binding; strength is not graded here.

Biological target: human HB-EGF expressed on SK-HB-1 cells (SKOV-3 cells transfected with human HB-EGF cDNA) (human) (UniProt Q99075)
Experiment: radioligand binding to SK-HB-1 cells expressing human HB-EGF, compared with parental SKOV-3 cells

125I-labeled diphtheria toxin (from UniProt P00587 26-560)
binding: binds
